The values below come from patent US20120225088, “COMPOSITIONS AND METHODS FOR TREATING CANCER AND OTHER DISEASES” (published 2012).

The chains behind the UniProt entries cited, without tags or fusion partners.
UniProt P01871, whole entry: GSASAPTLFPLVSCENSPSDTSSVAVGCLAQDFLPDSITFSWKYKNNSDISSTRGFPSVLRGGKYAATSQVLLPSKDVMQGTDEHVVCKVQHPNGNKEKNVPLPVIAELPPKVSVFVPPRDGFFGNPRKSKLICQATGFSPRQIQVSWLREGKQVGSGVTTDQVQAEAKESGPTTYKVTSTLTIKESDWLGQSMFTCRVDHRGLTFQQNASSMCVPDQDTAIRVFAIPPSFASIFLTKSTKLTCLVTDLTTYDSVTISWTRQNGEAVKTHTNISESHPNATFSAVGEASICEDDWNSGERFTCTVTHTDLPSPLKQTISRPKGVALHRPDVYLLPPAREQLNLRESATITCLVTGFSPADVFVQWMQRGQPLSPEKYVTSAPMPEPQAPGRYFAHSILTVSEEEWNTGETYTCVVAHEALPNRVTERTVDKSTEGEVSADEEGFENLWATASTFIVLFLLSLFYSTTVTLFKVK

For some assays here: Where cells or extracts were used, other partners may take part. Negatives hold for the conditions tested. The exact form of at least one protein or probe is not confirmed.

Series [1] deals with membrane-bound IgM (mIgM, immunoglobulin heavy mu chain of B-cell receptor) (Homo sapiens) (UniProt P01871). In words: flow cytometry. The conditions noted are these: protein on the cell surface, protein details: endogenous on Ramos Burkitt's lymphoma cells, single-stranded DNA; for Kd: Bmax/2 on Ramos cells, 37 C, letters built from the parent sequence and the stated change. A general note: A flow cytometer gives signals particle by particle.

For series [2], the system named is soluble IgM (pentameric, purified). In words: competition with a labelled probe. The conditions noted are these: purified native protein, single-stranded DNA.

The Kd is the free concentration of one partner at which half of the binding sites on the other are occupied at equilibrium, for simple one-to-one binding.

On to “AGGAGGATAGTTCGGTGGCTGTTCAGGGTCTCCTCCTAGGAGGATAGTTCGGTGGCTGTTCAGGGTCTCCTCCT [BV.12S]”, for which, in series [1] (TD05.1 dimer with (spacer 18 PEG)12 linker [(spacer 18 PEG)12 linker between 37 and 38 (left out)], label: 5' fluorophore, variant of TD05.1), the dissociation constant Kd was > 10 µM.

For the sequence “AGGAGGATAGTTCGGTGGCTGTTCAGGGTCTCCTCCTAGGAGGATAGTTCGGTGGCTGTTCAGGGTCTCCTCCTAGGAGGATAGTTCGGTGGCTGTTCAGGGTCTCCTCCTAGGAGGATAGTTCGGTGGCTGTTCAGGGTCTCCTCCT [TetVA.8S]”, the dissociation constant Kd in series [1] (TD05.1 tetramer with (spacer 18 PEG)8 linkers [(spacer 18 PEG)8 linkers between 37 and 38, 74 and 75, 111 and 112 (left out)], 20 mM MgCl2, label: FITC, variant of TD05.1) came out at 0.425 µM. For the same sequence, the binding result in series [2] (TD05.1 tetramer with (spacer 18 PEG)8 linkers [(spacer 18 PEG)8 linkers between 37 and 38, 74 and 75, 111 and 112 (left out)], excess soluble IgM does not affect binding to Ramos cells, decrease seen in 50% human serum, label: FITC, letters built from the parent sequence and the stated change, variant of TD05.1) is recorded as “no binding”. “AGGAGGATAGTTCGGTGGCTGTTCAGGGTCTCCTCCTAGGAGGATAGTTCGGTGGCTGTTCAGGGTCTCCTCCT [BV.16S]”: the Kd in series [1] (TD05.1 dimer with (spacer 18 PEG)16 linker [(spacer 18 PEG)16 linker between 37 and 38 (left out)], 20 mM MgCl2, label: 5' fluorophore, variant of TD05.1) amounted to 2.03 µM. As for “AGGAGGATAGTTCGGTGGCTGTTCAGGGTCTCCTCCTAGGAGGATAGTTCGGTGGCTGTTCAGGGTCTCCTCCTAGGAGGATAGTTCGGTGGCTGTTCAGGGTCTCCTCCT [TVA.8S]”, in series [1] (TD05.1 trimer with (spacer 18 PEG)8 linkers [(spacer 18 PEG)8 linkers between 37 and 38, and between 74 and 75 (left out)], 20 mM MgCl2, label: 5' fluorophore, variant of TD05.1), the dissociation constant (Kd) was 0.49 µM. Consider “ACCGTGGAGGATAGTTCGGTGGCTGTTCAGGGTCTCCTCCACGGT [TD05]”, for which the binding result in series [1] (unable to bind Ramos cells at physiological conditions, signal falls to background at higher temperatures, label: 5' FITC or Cy3) is reported as “no binding”. Regarding “AGGAGGATAGTTCGGTGGCTGTTCAGGGTCTCCTCCTAGGAGGATAGTTCGGTGGCTGTTCAGGGTCTCCTCCTGGAGGATAGTTCGGTGGCTGTTCAGGGTCTCCTCCT [L-TVA.8S]”, in series [1] (TD05.17 (LNA) trimer with (spacer 18 PEG)8 linkers, sp18 at 5' and 3' ends [LNA at 34-37, 71-74 and 107-110 (Y = LNA T, N = LNA C), 5' label (D) and sp18 before 1, (spacer 18 PEG)8 linkers between 37 and 38, 74 and 75, sp18 after 110 (left out), third unit printed without its 5' A], 20 mM MgCl2, label: 5' Cy3, variant of TD05.17), the Kd was 0.256 µM. Consider “AGGAGGATAGTTCGGTGGCTGTTCAGGGTCTCCTCCT [TD05.1]”, for which, in series [2] (excess soluble IgM or 20% human serum does not affect aptamer binding to Ramos cells, monomeric aptamer, label: 5' FITC or Cy3, variant of TD05), the binding result is “no binding”. “AGGAGGATAGTTCGGTGGCTGTTCAGGGTCTCCTCCTAGGAGGATAGTTCGGTGGCTGTTCAGGGTCTCCTCCT [L-BVA.8S]”: the dissociation constant (Kd) in series [1] (TD05.17 (LNA) dimer with (spacer 18 PEG)8 linker, sp18 at 5' and 3' ends [LNA at 34-37 and 71-74 (Y = LNA T, N = LNA C), 5' label (D) and sp18 before 1, (spacer 18 PEG)8 linker between 37 and 38, sp18 after 74 (left out)], 20 mM MgCl2, label: 5' FITC, variant of TD05.17) was 6.22 µM. Consider “AGGAGGATAGTTCGGTGGCTGTTCAGGGTCTCCTCCTAGGAGGATAGTTCGGTGGCTGTTCAGGGTCTCCTCCT [BV.8S]”, for which, in series [1] (TD05.1 dimer with (spacer 18 PEG)8 linker [(spacer 18 PEG)8 linker between 37 and 38 (left out)], slightly higher binding than BV.6S and BV.12S at 4 C, label: 5' fluorophore, variant of TD05.1), the dissociation constant Kd was > 10 µM.

As to “AGGAGGATAGTTCGGTGGCTGTTCAGGGTCTCCTCCTAGGAGGATAGTTCGGTGGCTGTTCAGGGTCTCCTCCT [BV.6S]”, in series [1] (TD05.1 dimer with (spacer 18 PEG)6 linker [(spacer 18 PEG)6 linker between 37 and 38 (left out)], label: 5' fluorophore, variant of TD05.1), the Kd is > 10 µM.
